PubChem BioAssay AID1259284 | Sanger Institute, 2017

Purpose: 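Kinase genes needed for growth or acting with cancer drugs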 (primary screen)
Cell system: SW48 human colorectal cancer cells
Knock-down reagent: siRNA pool against human genes
Challenge: anchor drug BYL719 at 1 µM, cetuximab at 5 µg/ml or trametinib at 10 nM, or DMSO vehicle alone
Read-out: 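Viability scaled to non-targeting control pool, robust z-score from controls, and synergy scores for each drug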
Scale: robust z-score, no drug: higher = more cells survive knock-down; viability, no drug: higher = more viable cells; synergy with BYL719 and synergy with trametinib and synergy with cetuximab: higher = stronger combined killing with drug
Hit rule: 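a knock-down is essential if viability without drug gives a robust z-score under -3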
Meaning of the calls: active = essential without drug; inactive = no change without drug
Shown is a random part of 794 deposited reagents. 16 of them (2%) were called active. 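Calls concern knock-down without drug only; drug synergy was judged apart, with scores above 0.15 taken as synergy.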 Unmarked entries are inactive. Viability is capped at 1. No sequences are given here. Not stated in the record: the amount of reagent, the time to read-out.

gene symbol | PubChem SID | robust z-score, no drug | viability, no drug (fraction of control) | synergy with BYL719 | synergy with trametinib | synergy with cetuximab
CDKL1 | SID56478790 | -0.0326 | 0.961 | -0.0292 | 0.0284 | 0.0921
PTK2 | SID56478542 | 0.426 | 1 | -0.0905 | 0.0052 | 0.0409
PKN1 | SID56478783 | 0.426 | 1 | -0.201 | -0.246 | -0.0903
CSK | SID56478490 | -1.69 | 0.819 | -0.119 | -0.14 | -0.164
GATA3 | SID134310077 | -1.16 | 0.864 | -0.166 | 0.094 | 0.0414
GRK1 | SID152156219 | 0.426 | 1 | -0.232 | -0.319 | -0.165
BRD2 | SID135620911 | 0.426 | 1 | -0.29 | -0.244 | -0.133
ELP1 | SID56479224 | -0.119 | 0.953 | -0.0782 | 0.03 | 0.0335
RET | SID135620630 | 0.426 | 1 | -0.171 | -0.051 | -0.165
TP53 | SID135620665 | 0.426 | 1 | -0.367 | -0.16 | -0.149
PI4K2B | SID56479132 | 0.426 | 1 | -0.167 | -0.161 | -0.114
LMTK3 | SID152150242 | 0.426 | 1 | -0.138 | 0.0497 | 0.249
ITPKC | SID56479112 | 0.426 | 1 | -0.014 | 0.0304 | -0.0956
TRIB2 | SID56479059 | 0.162 | 0.977 | 0.0959 | 0.0994 | 0.11
EPHA2 | SID135620614 | 0.426 | 1 | -0.324 | -0.421 | -0.165
STK10 | SID56478780 | 0.426 | 1 | -0.328 | -0.195 | -0.0534
NEK11 | SID152147168 | -0.894 | 0.887 | -0.273 | -0.159 | -0.222
EPHB2 | SID135620616 | 0.426 | 1 | -0.0738 | -0.0978 | -0.0955
JAK3 | SID56478525 | 0.426 | 1 | -0.245 | -0.0879 | -0.165
WNK4 | SID56478961 | 0.426 | 1 | -0.367 | -0.239 | -0.165
NEK8 | SID56478901 | -2.11 | 0.782 | -0.0462 | -0.0157 | -0.0253
MAP3K12 | SID56478643 | 0.426 | 1 | -0.055 | 0.0261 | 0.0822
MAP3K1 | SID152150888 | 0.426 | 1 | -0.239 | -0.114 | -0.0542
GUK1 | SID152156775 | 0.0785 | 0.97 | -0.221 | -0.00477 | -0.0878
PRKACB | SID56478825 | 0.426 | 1 | -0.175 | 0.0285 | -0.0977
CDK3 | SID56478597 | -0.00752 | 0.963 | -0.144 | -0.246 | -0.0216
DYRK3 | SID152153037 | 0.426 | 1 | -0.154 | -0.0347 | -0.165
ERBB4 | SID135620618 | 0.426 | 1 | -0.197 | -0.132 | -0.0325
RTN4 | SID134315213 | 0.426 | 1 | -0.264 | -0.0413 | -0.119
NTRK3 | SID135620627 | 0.426 | 1 | -0.212 | -0.317 | -0.158
UHMK1 | SID152150381 | 0.426 | 1 | -0.2 | -0.129 | -0.00763
CDKL2 | SID152156267 | 0.426 | 1 | -0.168 | -0.0714 | 0.0902
PDK1 | SID56478951 | 0.426 | 1 | -0.0831 | 0.00926 | -0.0981
MAP2K3 | SID152148115 | 0.426 | 1 | -0.0511 | 0.0432 | 0.145
MAP3K2 | SID135620706 | 0.426 | 1 | -0.276 | -0.416 | -0.165
CIT | SID56478810 | -6.94 (active) | 0.368 | -0.0634 | -0.0829 | -0.0429
AGK | SID56479172 | 0.426 | 1 | -0.262 | -0.0947 | -0.165
ROCK2 | SID135620850 | 0.426 | 1 | -0.122 | -0.0366 | -0.129
MSR1 | SID152150198 | -0.164 | 0.949 | 0 | -0.0284 | -0.00285
MECOM | SID135621208 | 0.426 | 1 | -0.128 | -0.0526 | -0.0308
CSNK2A2 | SID56478861 | 0.426 | 1 | -0.195 | 0.107 | -0.144
STK32A | SID152151517 | 0.426 | 1 | -0.162 | -0.0934 | -0.0946
NME2 | SID152149420 | 0.426 | 1 | -0.155 | -0.0227 | -0.0565
LCK | SID152150546 | 0.426 | 1 | -0.265 | -0.193 | -0.165
BRDT | SID152149808 | 0.426 | 1 | -0.143 | 0.00225 | -0.134
COQ8B | SID56478994 | 0.426 | 1 | -0.3 | -0.234 | -0.165
TRIB1 | SID56478720 | 0.426 | 1 | -0.336 | -0.218 | -0.165
THNSL1 | SID152147285 | 0.426 | 1 | -0.19 | -0.177 | -0.0998
HIPK3 | SID152151658 | 0.426 | 1 | -0.19 | -0.116 | -0.1
FYN | SID135620621 | 0.0355 | 0.966 | -0.234 | -0.238 | -0.0262

Reformatted: entries from further up.
TP53 [SID135620665]
- robust z-score, no drug: 0.426
- viability, no drug (fraction of control): 1
- synergy with BYL719: -0.367
- synergy with trametinib: -0.16
- synergy with cetuximab: -0.149

PI4K2B [SID56479132]
- robust z-score, no drug: 0.426
- viability, no drug (fraction of control): 1
- synergy with BYL719: -0.167
- synergy with trametinib: -0.161
- synergy with cetuximab: -0.114

LMTK3 [SID152150242]
- robust z-score, no drug: 0.426
- viability, no drug (fraction of control): 1
- synergy with BYL719: -0.138
- synergy with trametinib: 0.0497
- synergy with cetuximab: 0.249

ITPKC [SID56479112]
- robust z-score, no drug: 0.426
- viability, no drug (fraction of control): 1
- synergy with BYL719: -0.014
- synergy with trametinib: 0.0304
- synergy with cetuximab: -0.0956

TRIB2 [SID56479059]
- robust z-score, no drug: 0.162
- viability, no drug (fraction of control): 0.977
- synergy with BYL719: 0.0959
- synergy with trametinib: 0.0994
- synergy with cetuximab: 0.11
